Results reported in publication doi:10.1101/2021.03.24.436811.
These are yes or no findings as the source states them, for the method shown. Binding seen in cells or lysates may run through a third protein. A yes stands for co-enrichment or nearness to the bait. Other partners may have been found. Sequences can lack the tags named with a protein.

By UniProt entry, the sequences of proteins in these tests, tags left out.
UniProt Q39255: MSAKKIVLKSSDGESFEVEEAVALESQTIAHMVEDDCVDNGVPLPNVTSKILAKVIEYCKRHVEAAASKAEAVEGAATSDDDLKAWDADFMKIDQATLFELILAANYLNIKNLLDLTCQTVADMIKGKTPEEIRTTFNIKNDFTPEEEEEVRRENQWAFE
UniProt Q94AH6: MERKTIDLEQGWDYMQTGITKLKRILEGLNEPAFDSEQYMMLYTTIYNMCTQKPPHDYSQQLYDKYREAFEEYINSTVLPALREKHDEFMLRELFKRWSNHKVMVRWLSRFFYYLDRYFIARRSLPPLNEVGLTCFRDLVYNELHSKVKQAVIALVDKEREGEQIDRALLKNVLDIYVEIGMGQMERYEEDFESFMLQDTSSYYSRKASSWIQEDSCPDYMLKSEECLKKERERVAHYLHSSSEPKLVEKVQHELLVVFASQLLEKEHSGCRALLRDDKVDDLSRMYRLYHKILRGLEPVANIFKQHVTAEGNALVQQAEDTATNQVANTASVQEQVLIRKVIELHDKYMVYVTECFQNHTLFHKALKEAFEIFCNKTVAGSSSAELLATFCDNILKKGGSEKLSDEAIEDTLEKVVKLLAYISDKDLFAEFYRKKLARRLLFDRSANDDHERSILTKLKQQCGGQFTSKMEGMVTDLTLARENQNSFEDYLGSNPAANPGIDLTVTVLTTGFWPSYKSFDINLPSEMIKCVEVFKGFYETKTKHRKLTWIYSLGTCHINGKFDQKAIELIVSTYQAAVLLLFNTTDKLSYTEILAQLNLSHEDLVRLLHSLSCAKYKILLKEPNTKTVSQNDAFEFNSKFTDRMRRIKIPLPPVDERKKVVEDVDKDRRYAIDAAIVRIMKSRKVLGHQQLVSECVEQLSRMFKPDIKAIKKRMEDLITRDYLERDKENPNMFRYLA

T1: 3HA-FBW2 (3x HA epitope at the N-terminus of the F-box protein FBW2) (Arabidopsis thaliana) (UniProt Q9ZPE4)
T1 sequence: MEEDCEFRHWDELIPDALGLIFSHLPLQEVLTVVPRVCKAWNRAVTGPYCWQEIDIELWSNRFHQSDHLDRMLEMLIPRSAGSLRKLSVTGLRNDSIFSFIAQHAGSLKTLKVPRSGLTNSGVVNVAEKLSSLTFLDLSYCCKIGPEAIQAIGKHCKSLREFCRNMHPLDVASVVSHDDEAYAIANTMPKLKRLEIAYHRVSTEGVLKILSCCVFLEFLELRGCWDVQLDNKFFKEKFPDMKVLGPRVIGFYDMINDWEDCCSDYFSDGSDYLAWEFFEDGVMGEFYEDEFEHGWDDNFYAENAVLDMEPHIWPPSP


Molecular target: T1, 3HA-FBW2 (3x HA epitope at the N-terminus of the F-box protein FBW2) (Arabidopsis thaliana)
Experiment: affinity purification with mass spectrometry

binding | Molecule
binds | Hsp70, endogenous
binds | CDC48B, endogenous
binds | DNAJ homologue J2, endogenous
binds | Hsp80, endogenous
binds | CUL-like protein1, endogenous
binds | ASK1 (Skp1-like protein 1), endogenous (from UniProt Q39255 1-160)
binds | Hsp90, endogenous
binds | CDC48C, endogenous
binds | RUB1, endogenous
binds | CULLIN1 (CUL1), endogenous (from UniProt Q94AH6 1-738)
binds | AGO10, endogenous (protein, UniProt Q9XGW1 1-988) MPIRQMKDSSETHLVIKTQPLKHHNPKTVQNGKIPPPSPSPVTVTTPATVTQSQASSPSPPSKNRSRRRNRGGRKSDQGDVCMRPSSRPRKPPPPSQTTSSAVSVATAGEIVAVNHQMQMGVRKNSNFAPRPGFGTLGTKCIVKANHFLADLPTKDLNQYDVTITPEVSSKSVNRAIIAELVRLYKESDLGRRLPAYDGRKSLYTAGELPFTWKEFSVKIVDEDDGIINGPKRERSYKVAIKFVARANMHHLGEFLAGKRADCPQEAVQILDIVLRELSVKRFCPVGRSFFSPDIKTPQRLGEGLESWCGFYQSIRPTQMGLSLNIDMASAAFIEPLPVIEFVAQLLGKDVLSKPLSDSDRVKIKKGLRGVKVEVTHRANVRRKYRVAGLTTQPTRELMFPVDENCTMKSVIEYFQEMYGFTIQHTHLPCLQVGNQKKASYLPMEACKIVEGQRYTKRLNEKQITALLKVTCQRPRDRENDILRTVQHNAYDQDPYAKEFGMNISEKLASVEARILPAPWLKYHENGKEKDCLPQVGQWNMMNKKMINGMTVSRWACVNFSRSVQENVARGFCNELGQMCEVSGMEFNPEPVIPIYSARPDQVEKALKHVYHTSMNKTKGKELELLLAILPDNNGSLYGDLKRICETELGLISQCCLTKHVFKISKQYLANVSLKINVKMGGRNTVLVDAISCRIPLVSDIPTIIFGADVTHPENGEESSPSIAAVVASQDWPEVTKYAGLVCAQAHRQELIQDLYKTWQDPVRGTVSGGMIRDLLISFRKATGQKPLRIIFYRDGVSEGQFYQVLLYELDAIRKACASLEPNYQPPVTFIVVQKRHHTRLFANNHRDKNSTDRSGNILPGTVVDTKICHPTEFDFYLCSHAGIQGTSRPAHYHVLWDENNFTADGIQSLTNNLCYTYARCTRSVSIVPPAYYAHLAAFRARFYLEPEIMQDNGSPGKKNTKTTTVGDVGVKPLPALKENVKRVMFYC
binds | ASK20, endogenous (protein, UniProt A8MQG7 1-352) MSEGDLAVMKPETMKSYIWLQTADGSIQQVEQEVAMFCPMICQEVIQKGVGSSKNHAISLPQRVNPAMFSLILDYCRFHQLPGRSNKERKTYDERFIRMDTKRLCELTSAADSLQLKPLVDLTSRALARIIEGKNPEEIREIFHLPDDLTEEEKLEPLKNSMDDPRIRLLNRLYAKKRKELKERERLKNVEVEEHVDERSVDDLLSFINGRDHKAVKMSKGKKKKKKKKDQKIVSSNNIHDKESHDLRSKQQCVEEIGSSMREVPNLLSAEDDISTPNAGSEDEDIDDEIDPAMRELLDREVEDFAQRLNSNWVRSLGKERRPVHFSINGNGTTRRHTGMVSIWRPCMFTLF
binds | ASK21, endogenous (protein, UniProt Q8LF97 1-351) MSEGEMAIIKPEMMKSYIWLETADGSIQQVEQEVAMFCPMICQEVIQKGVGSSKNYAISLPQRVNPAMLSLIFDYCRFHQVPGRSNKERKVYDEKFIRMDTKRLCELTSAADSLQLKPLVDLTSRALARIIEGKTPEEIREIFHLPDDLTEEEKLEPLKNTMDDPRIRLLNRLYAKKRKELKEREKLKSVEVEEHVDERSVDDLLSFINGRDPKVVKTSKSKKKNKKRKEQKNGSSNGTCEALEKDLHNLDSKSQSAEIVDNTASCLGDVSNLPSMEDDIFTPKTEFEDGYIDDEIDPALKELLDREVEDFARRLNSSWVLSIGQERQPVNFSINGNGTSRRLTGPAAGHK
binds | AGO5, endogenous (protein, UniProt Q9SJK3 1-997) MSNRGGGGHGGASRGRGGGRRSDQRQDQSSGQVAWPGLQQSYGGRGGSVSAGRGRGNVGRGENTGDLTATQVPVASAVSGGRGRGNIGDPTFSVASSSKTVSVASSSKEESKNTEVSETMSNLQITSTETKPEMTSLPPASSKAVTFPVRPGRGTLGKKVMVRANHFLVQVADRDLYHYDVSINPEVISKTVNRNVMKLLVKNYKDSHLGGKSPAYDGRKSLYTAGPLPFDSKEFVVNLAEKRADGSSGKDRPFKVAVKNVTSTDLYQLQQFLDRKQREAPYDTIQVLDVVLRDKPSNDYVSVGRSFFHTSLGKDARDGRGELGDGIEYWRGYFQSLRLTQMGLSLNIDVSARSFYEPIVVTDFISKFLNIRDLNRPLRDSDRLKVKKVLRTLKVKLLHWNGTKSAKISGISSLPIRELRFTLEDKSEKTVVQYFAEKYNYRVKYQALPAIQTGSDTRPVYLPMELCQIDEGQRYTKRLNEKQVTALLKATCQRPPDRENSIKNLVVKNNYNDDLSKEFGMSVTTQLASIEARVLPPPMLKYHDSGKEKMVNPRLGQWNMIDKKMVNGAKVTSWTCVSFSTRIDRGLPQEFCKQLIGMCVSKGMEFKPQPAIPFISCPPEHIEEALLDIHKRAPGLQLLIVILPDVTGSYGKIKRICETELGIVSQCCQPRQVNKLNKQYMENVALKINVKTGGRNTVLNDAIRRNIPLITDRPTIIMGADVTHPQPGEDSSPSIAAVVASMDWPEINKYRGLVSAQAHREEIIQDLYKLVQDPQRGLVHSGLIREHFIAFRRATGQIPQRIIFYRDGVSEGQFSQVLLHEMTAIRKACNSLQENYVPRVTFVIVQKRHHTRLFPEQHGNRDMTDKSGNIQPGTVVDTKICHPNEFDFYLNSHAGIQGTSRPAHYHVLLDENGFTADQLQMLTNNLCYTYARCTKSVSIVPPAYYAHLAAFRARYYMESEMSDGGSSRSRSSTTGVGQVISQLPAIKDNVKEVMFYC
binds | DNAJ homologue J3, endogenous (protein, UniProt Q94AW8 1-420) MFGRGPSKKSDNTKFYEILGVPKSASPEDLKKAYKKAAIKNHPDKGGDPEKFKELAQAYEVLSDPEKREIYDQYGEDALKEGMGGGGGGHDPFDIFSSFFGGGPFGGNTSRQRRQRRGEDVVHPLKVSLEDVYLGTMKKLSLSRNALCSKCNGKGSKSGASLKCGGCQGSGMKVSIRQLGPGMIQQMQHACNECKGTGETINDRDRCPQCKGDKVIPEKKVLEVNVEKGMQHSQKITFEGQADEAPDTVTGDIVFVLQQKEHPKFKRKGEDLFVEHTLSLTEALCGFQFVLTHLDGRSLLIKSNPGEVVKPDSYKAISDEGMPIYQRPFMKGKLYIHFTVEFPDSLSPDQTKALEAVLPKPSTAQLSDMEIDECEETTLHDVNIEDEMRRKAQAQREAYDDDDEDDDHPGGAQRVQCAQQ
